# Results: PubChem BioAssay (EPA / NIEHS)
# Chains of the proteins cited; added tags and fusions are not shown. Lines headed by an entry give the natural chain unless they say otherwise; changes in a name come on top.
# UniProt P10275: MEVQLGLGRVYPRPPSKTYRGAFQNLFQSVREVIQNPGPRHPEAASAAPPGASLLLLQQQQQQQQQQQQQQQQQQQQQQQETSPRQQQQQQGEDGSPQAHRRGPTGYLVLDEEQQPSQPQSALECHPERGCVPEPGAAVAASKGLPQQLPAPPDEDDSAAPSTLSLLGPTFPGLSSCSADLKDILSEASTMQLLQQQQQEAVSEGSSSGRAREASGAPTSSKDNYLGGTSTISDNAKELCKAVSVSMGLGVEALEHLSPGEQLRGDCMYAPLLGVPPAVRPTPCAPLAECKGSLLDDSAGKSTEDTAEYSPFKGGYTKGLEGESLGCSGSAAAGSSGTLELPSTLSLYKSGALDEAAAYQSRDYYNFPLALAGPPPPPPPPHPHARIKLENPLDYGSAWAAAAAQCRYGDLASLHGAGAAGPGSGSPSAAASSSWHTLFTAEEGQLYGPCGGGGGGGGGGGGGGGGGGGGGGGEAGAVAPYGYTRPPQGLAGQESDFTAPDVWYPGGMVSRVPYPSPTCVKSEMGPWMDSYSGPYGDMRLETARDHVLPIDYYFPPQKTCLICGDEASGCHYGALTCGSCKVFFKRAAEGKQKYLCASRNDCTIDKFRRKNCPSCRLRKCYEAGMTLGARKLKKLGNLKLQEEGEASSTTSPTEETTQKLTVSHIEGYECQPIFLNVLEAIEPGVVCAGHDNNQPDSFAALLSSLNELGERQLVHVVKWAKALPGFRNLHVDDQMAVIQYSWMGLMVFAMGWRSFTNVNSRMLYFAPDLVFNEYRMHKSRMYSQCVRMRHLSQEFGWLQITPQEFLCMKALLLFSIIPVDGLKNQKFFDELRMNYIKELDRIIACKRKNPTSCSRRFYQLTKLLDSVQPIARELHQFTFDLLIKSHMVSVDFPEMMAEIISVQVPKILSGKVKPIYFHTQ
# UniProt P06212, whole entry, looked up: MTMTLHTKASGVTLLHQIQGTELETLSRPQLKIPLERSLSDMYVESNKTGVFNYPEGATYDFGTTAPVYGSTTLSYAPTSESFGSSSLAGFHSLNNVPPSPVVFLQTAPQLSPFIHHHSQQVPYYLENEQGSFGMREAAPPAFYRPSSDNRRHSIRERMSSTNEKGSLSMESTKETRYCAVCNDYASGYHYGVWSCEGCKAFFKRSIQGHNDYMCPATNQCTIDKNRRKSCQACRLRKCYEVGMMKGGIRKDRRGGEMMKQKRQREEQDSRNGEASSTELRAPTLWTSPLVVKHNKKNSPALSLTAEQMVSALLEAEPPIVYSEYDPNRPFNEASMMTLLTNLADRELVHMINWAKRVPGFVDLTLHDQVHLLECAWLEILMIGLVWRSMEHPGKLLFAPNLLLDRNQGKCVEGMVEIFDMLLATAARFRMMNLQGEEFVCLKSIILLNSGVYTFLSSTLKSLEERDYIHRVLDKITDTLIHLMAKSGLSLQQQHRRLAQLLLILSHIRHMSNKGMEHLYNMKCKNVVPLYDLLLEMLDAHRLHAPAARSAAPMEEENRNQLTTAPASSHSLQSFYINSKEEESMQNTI
# UniProt P03372, whole entry, looked up: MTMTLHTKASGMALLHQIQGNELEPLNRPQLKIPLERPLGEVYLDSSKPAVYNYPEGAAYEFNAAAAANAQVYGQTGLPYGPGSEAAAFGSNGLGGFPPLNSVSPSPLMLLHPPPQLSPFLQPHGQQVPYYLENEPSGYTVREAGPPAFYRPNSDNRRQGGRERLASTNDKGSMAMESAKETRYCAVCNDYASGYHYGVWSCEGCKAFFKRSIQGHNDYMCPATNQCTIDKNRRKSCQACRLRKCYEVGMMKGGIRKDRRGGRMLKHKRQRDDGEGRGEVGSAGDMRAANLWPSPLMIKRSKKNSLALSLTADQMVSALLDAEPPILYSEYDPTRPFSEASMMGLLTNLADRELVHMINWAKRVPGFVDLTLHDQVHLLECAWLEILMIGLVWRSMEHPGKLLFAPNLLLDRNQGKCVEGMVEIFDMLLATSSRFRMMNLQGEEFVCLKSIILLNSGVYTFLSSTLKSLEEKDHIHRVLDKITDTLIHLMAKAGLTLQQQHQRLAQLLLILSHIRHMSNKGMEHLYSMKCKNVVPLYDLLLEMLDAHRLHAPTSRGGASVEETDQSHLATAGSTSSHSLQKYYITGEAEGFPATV
# UniProt P57717: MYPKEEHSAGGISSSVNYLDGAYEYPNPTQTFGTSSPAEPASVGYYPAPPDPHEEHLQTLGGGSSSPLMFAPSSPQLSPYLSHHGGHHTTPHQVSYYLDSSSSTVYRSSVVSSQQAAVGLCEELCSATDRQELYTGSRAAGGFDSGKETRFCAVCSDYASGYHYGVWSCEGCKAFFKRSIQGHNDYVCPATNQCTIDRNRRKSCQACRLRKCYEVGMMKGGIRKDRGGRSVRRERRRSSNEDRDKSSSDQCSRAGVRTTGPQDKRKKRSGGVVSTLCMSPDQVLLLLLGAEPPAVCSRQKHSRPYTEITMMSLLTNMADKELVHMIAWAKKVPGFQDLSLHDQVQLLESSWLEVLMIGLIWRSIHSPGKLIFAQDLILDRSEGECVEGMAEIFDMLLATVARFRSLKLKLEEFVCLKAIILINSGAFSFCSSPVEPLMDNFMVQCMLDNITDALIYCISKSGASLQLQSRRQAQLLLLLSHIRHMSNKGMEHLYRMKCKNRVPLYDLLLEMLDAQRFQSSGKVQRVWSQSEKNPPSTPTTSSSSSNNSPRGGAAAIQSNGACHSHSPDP
# The inconclusive results got no clear call from the source; some entries with a clear call stand among them for comparison. For part of these data: A potency beside an inconclusive call is a rough fit, not a confirmed value. Active and inactive are the calls of the source. Rule for the calls: active = hit-call score of the fitted dose curve at least 0.9, where 1 is the maximum; inconclusive = response in the unintended direction; inactive = score below 0.9.
# Legend:
# [1] = ArunA_NOG_BranchPointsPerNeurite: ArunA Biomedical's Neurite Outgrowth (NOG) Assay for Branch Points Per Neurite (AID 2283759)
# Outline: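 Automated image analysis traced neurites (processes >10 um) from valid cell bodies after Hoechst and βIII-tubulin staining. hNN cells from H9 embryonic stem cells, 48 h exposure. Fitted bidirectionally against DMSO.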
# [2] = ACEA_ER_AUC_viability: ACEA Biosciences xCELLigence Real-Time Cell Analysis on Estrogen Receptor Agonism for Viability (AID 2283782);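 note: hit means loss of impedance signal meaning reduced cell growth or viability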
# Outline: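 Viability endpoint: reduced impedance area under the curve relative to DMSO, recorded by real-time electrode sensing over ~80 h of continuous exposure. Duplicate plates of T47D in hormone-depleted medium; eight concentrations, 1:4 dilutions, 100 uM maximum.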
# [3] = biological target: AR (gene 367) (UniProt P10275); test: ACEA_AR_agonist_80hr: ACEA Biosciences xCELLigence Real-Time Cell Analysis on Androgen Receptor Agonism for Proliferation (AID 2283783);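 note: hits increase impedance growth signal above DMSO baseline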
# Outline: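 Eight concentrations, 1:4 serial dilution from a 100 uM final top, in biological duplicate. Impedance-based real-time growth of 22Rv1 cells after overnight baseline, recorded hourly and read at 80 hours. Controls: testosterone, MG132, assay media.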
# [4] = ACEA_AR_agonist_AUC_viability: ACEA Biosciences xCELLigence Real-Time Cell Analysis on Androgen Receptor Agonism for Viability (AID 2283775);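 for AC50: viability read 80 hours after compound addition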
# Outline: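 Viability endpoint from xCELLigence impedance in 22Rv1 prostate cells at 80 h. Eight-point series, 100 uM maximum final.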
# [5] = tested on: chicken Androgen Receptor (AR), gene 422165; test: ATG_chAR_XSP1: Attagene TRANS-FACTORIAL Multi-Species (XSP1) HepG2 Assay for chicken Androgen Receptor (AR) (AID 2283768)
# Outline: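 Reporter mRNA read by RT-PCR with fluorescent labelling and capillary electrophoresis 24 h after chemical dosing of transiently transfected HepG2 cells. Chicken AR-Gal4 chimera, partially stimulated with 3 nM 6-alpha-fluorotestosterone; activity fitted upward relative to DMSO.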
# [6] = tested on: frog Androgen Receptor (AR), gene 399456; test: ATG_frAR_XSP1: Attagene TRANS-FACTORIAL Multi-Species (XSP1) HepG2 Assay for frog Androgen Receptor (AR) (AID 2283770)
# Protocol: ATG_XSP1_multi-species_TRANS is a cell-based, multiplexed assay created by modifying the existing Attagene TRANS-FACTORIAL system to include a panel of nuclear receptors from some or all the following species: human (Homo sapiens), mouse (Mus musculus), frog (Xenopus laevis), zebrafish (Danio rerio), chicken (Gallus gallus), and turtle (Chrysemys picta). The ECOTOX-FACTORIAL format uses HepG2, a human liver cell line, with measurements taken at 24 hours after chemical dosing in a 24-well plate. Xsp1 included 3 nM 6-alpha-fluorotestosterone to partially stimulate the androgen receptor.ATG_frAR_XSP1 is one of 29 assay components measured or calculated from the ATG_XSP1_multi-species_TRANS assay. It is designed to make measurements of mRNA induction, a form of inducible reporter, as detected with fluorescence intensity signals by Reverse transcription polymerase chain reaction (RT-PCR) and Capillary electrophoresis technology.The assay endpoint ATG_frAR_XSP1 was analyzed in the positive analysis fitting direction relative to DMSO as the negative control and baseline of activity. Using a type of inducible reporter, measures of mRNA for gain-of-signal activity can be used to understand the reporter gene at the transcription factor-level as they relate to the gene AR. Furthermore, this assay endpoint can be referred to as a primary readout, because this assay has produced multiple assay endpoints where this one serves a reporter gene function. To generalize the intended target to other relatable targets, this assay endpoint is annotated to the nuclear receptor intended target family, where the subfamily is steroidal.
# Human liver HepG2 cells are transiently transfected with multiple reporter transcription units (MRTUs) in 6-well plates using FuGene 6 reagent (Roche; 3 ml FuGene/1 mg DNA). The MRTU constructs are regulated by a cis-regulating element (promoter). […] A major difference between the CIS and TRANS system is that in CIS activities of endogenous TFs are measured, whereas the TRANS assay evaluates changes in activities of exogenous, chimeric NR-Gal4 proteins. […] At the end of 24 hour incubation, total RNA was isolated using TriZol reagent (Invitrogen). The isolated RNA is then reverse-transcribed using oligo(dT) primer and Mo-MLV reverse transcriptase (Invitrogen) with DNAse I (Ambion) treatment for 30 min. The one-tenth of the produced cDNA was amplified by PCR using Taq DNA polymerase (Invitrogen) and two reporter sequence-specific primers. The PCR products were fluorescently labeled by primer extension with 6-arboxyfluorescein (6-FAM) 5'-labeled reporter sequence-specific primer (2 min at 95 C, 20 s at 68 C and 10 min at 72 C) and these products were digested with 5U of HpaI (New England Biolabs) for 2h at 37 C. The fragments were purified using Qiaquick PCR columns (Qiagen), analyzed on an ABI 3130xL genetic analyzer (Applied Biosystems) with peak positions identified by using a set of X-rhodamine (ROX)-labeled MapMarker1000 molecular weight standards (BioVentures). The raw capillary electrophoresis data was processed using Attagraph software (Attagene).
# [7] = tested on: zebrafish Androgen Receptor (AR), gene 100005148; test: ATG_zfAR_XSP1: Attagene TRANS-FACTORIAL Multi-Species (XSP1) HepG2 Assay for zebrafish Androgen Receptor (AR) (AID 2283771)
# Outline: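 Gain-of-signal versus DMSO was measured as reporter transcripts quantified by RT-PCR, fluorescent labelling and capillary electrophoresis after 24 h chemical exposure. The cells were HepG2 expressing a chimeric zebrafish AR-GAL4, co-stimulated with 3 nM 6-alpha-fluorotestosterone.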
# [8] = tested on: zebrafish Estrogen Receptor (ESR2B), gene 317733; test: ATG_zfER2b_XSP1: Attagene TRANS-FACTORIAL Multi-Species (XSP1) HepG2 Assay for zebrafish Estrogen Receptor (ESR2B) (AID 2283773)
# Outline: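 Medium contained 3 nM 6-alpha-fluorotestosterone. Reporter mRNA induction by exogenous zebrafish ER2b-Gal4 chimera was read 24 h post-dose in transiently transfected HepG2 cells, using RT-PCR, fluorescent labelling, HpaI digestion and capillary electrophoresis.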
# [9] = tested on: frog Estrogen Receptor (ESR2), gene 100174814; test: ATG_frER2_XSP1: Attagene TRANS-FACTORIAL Multi-Species (XSP1) HepG2 Assay for frog Estrogen Receptor (ESR2) (AID 2283774)
# Outline: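 Reporter mRNA from a multiplexed TRANS system, measured by RT-PCR with fluorescent labelling and capillary electrophoresis, 24 hours after chemical exposure. Human HepG2 liver cells carried exogenous frog ER-Gal4 chimera; medium included 3 nM 6-alpha-fluorotestosterone; increases versus DMSO analysed.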
# [10] = tested on: frog Estrogen Receptor (ESR1), gene 398734; test: ATG_frER1_XSP1: Attagene TRANS-FACTORIAL Multi-Species (XSP1) HepG2 Assay for frog Estrogen Receptor (ESR1) (AID 2283777)
# Outline: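 HepG2 cells transiently transfected with GAL4-UAS reporter units and frog ER–Gal4 chimera were dosed for 24 h with 3 nM 6-alpha-fluorotestosterone present. Reporter mRNA was measured by RT-PCR and capillary electrophoresis; gain of signal fitted versus DMSO.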
# [11] = tested on: zebrafish Estrogen Receptor (ESR2A), gene 317734; test: ATG_zfER2a_XSP1: Attagene TRANS-FACTORIAL Multi-Species (XSP1) HepG2 Assay for zebrafish Estrogen Receptor (ESR2A) (AID 2283778)
# Outline: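 Reporter transcripts were quantified by RT-PCR, 6-FAM labelling, HpaI digestion and capillary electrophoresis after 24 h dosing. The cells were HepG2 transiently carrying a zebrafish ER2a–Gal4 construct plus multiplexed UAS reporters; medium contained 3 nM 6-alpha-fluorotestosterone.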
# [12] = biological target: chicken Estrogen Receptor (ESR1), ESR1 (gene 396099) (UniProt P06212); test: ATG_chERa_XSP1: Attagene TRANS-FACTORIAL Multi-Species (XSP1) HepG2 Assay for chicken Estrogen Receptor (ESR1) (AID 2283779)
# Outline: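 Trans-activation of an exogenous chicken ERα–Gal4 chimera read as reporter transcript (RT-PCR, fluorescent labeling, capillary electrophoresis) after 24 h compound exposure of transfected HepG2; medium held 3 nM 6-alpha-fluorotestosterone. Positive-direction fit against DMSO.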
# [13] = biological target: Estrogen receptor (Homo sapiens) (UniProt P03372); test: ATG_hERa_XSP1: Attagene TRANS-FACTORIAL Multi-Species (XSP1) HepG2 Assay for human Estrogen Receptor (ESR1) (AID 2283780)
# Outline: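 Reporter transcripts from multiplexed GAL4-UAS units driven by NR-Gal4 chimeras in transiently transfected HepG2 were measured by RT-PCR with capillary electrophoresis 24 h post-dose, with 3 nM 6-alpha-fluorotestosterone present; gain-of-signal relative to DMSO.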
# [14] = tested on: turtle Estrogen Receptor (ESR1), gene 101933533; test: ATG_trERa_XSP1: Attagene TRANS-FACTORIAL Multi-Species (XSP1) HepG2 Assay for turtle Estrogen Receptor (ESR1) (AID 2283781)
# Outline: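 Transactivation measured 24 h post-dose as reporter mRNA (RT-PCR, fluorescent capillary electrophoresis) from an NR-Gal4 turtle ER construct in HepG2. Medium included 3 nM 6-alpha-fluorotestosterone; increase over DMSO fitted.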
# [15] = STM_H9_NormalizedViability: Cytotoxicity Assessment at 120 hours in the Stemina devTOX quickPredict H9 human embryonic stem cell (hESC)-based Assay (AID 2283784)
# Outline: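 Here, H9 cells received test compound with daily medium renewal. Each plate included methotrexate references (1uM, 5 nM), 0.1% DMSO and media blanks; CellTiter-Fluor RFU was normalized to DMSO.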
# [16] = biological target: human Androgen Receptor (AR), AR (gene 367) (UniProt P10275); test: ATG_hAR_XSP1: Attagene TRANS-FACTORIAL Multi-Species (XSP1) HepG2 Assay for human Androgen Receptor (AR) (AID 2283785)
# [17] = tested on: turtle Androgen Receptor (AR), gene 101947425; test: ATG_trAR_XSP1: Attagene TRANS-FACTORIAL Multi-Species (XSP1) HepG2 Assay for turtle Androgen Receptor (AR) (AID 2283786)
# Outline: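 Partial androgen stimulation is provided by 3 nM 6-alpha-fluorotestosterone in a multi-species trans-factorial panel expressing a turtle AR–GAL4 fusion in HepG2. After 24 h, reporter mRNA is measured by RT-PCR and capillary electrophoresis and fitted upward against DMSO.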
# [18] = biological target: zebrafish Estrogen Receptor (ESR1), esr1 (gene 259252) (UniProt P57717); test: ATG_zfER1_XSP1: Attagene TRANS-FACTORIAL Multi-Species (XSP1) HepG2 Assay for zebrafish Estrogen Receptor (ESR1) (AID 2283772)
# Outline: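 HepG2 cells transiently transfected with a GAL4-UAS reporter and chimeric zebrafish ER-Gal4, dosed 24 h with 3 nM 6-alpha-fluorotestosterone present. Reporter mRNA measured by RT-PCR and capillary electrophoresis; gain of signal versus DMSO.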
# [19] = ACEA_AR_antagonist_AUC_viability: ACEA Biosciences xCELLigence Real-Time Cell Analysis on Androgen Receptor Antagonism for Viability (AID 2283776);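 note: 22Rv1 human prostate cancer cells growing on impedance electrode plates; area under impedance growth curve at 80 h after dosing as viability; hits lower the growth signal relative to DMSO meaning cytotoxicity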
# Outline: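 Impedance read-out (RT-CES): area under growth curve at 80 h post-dose, loss of signal scored vs DMSO baseline. 22Rv1 cells; 8-pt 1:4 series, top 100 uM final, ≤0.5% DMSO; biological duplicate.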
smiles,measurement,setting,value
OC[C@@H](O)[C@@H](O)[C@H](O)[C@H](O)CO,AC50,[1],active: 9.92 µM
same,AC50,[2],inconclusive: 50 µM
CCCCCCCCCCCCc1ccccc1S(=O)(=O)O,AC50,[1],inconclusive: 0.686 µM
same,AC50,[2],active: 83.7 µM
same,outcome,[3],inactive
Nc1nc(Cl)nc2c1ncn2[C@H]1C[C@H](O)[C@@H](CO)O1,AC50,[1],active: 3.41 µM
Cc1cccnc1,AC50,[4],inconclusive: 0.0138 µM
C=C[Si]1(C)O[Si](C)(C=C)O[Si](C)(C=C)O[Si](C)(C=C)O1 (stereo not given),AC50,[4],inconclusive: 0.173 µM
CC(=O)c1ccccc1O,AC50,[4],inconclusive: 0.125 µM
OC[C@H]1O[C@@](CO)(O[C@H]2O[C@H](CO)[C@@H](O)[C@H](O)[C@H]2O)[C@@H](O)[C@@H]1O,AC50,[4],inconclusive: 0.0637 µM
CC(C)CCCCCCCCCCCCCCC(=O)O,outcome,[4],inactive
COc1cc(C(=O)NC2CCN(C)CC2)ccc1Nc1ncc2c(n1)N(C1CCCC1)CC(F)(F)C(=O)N2C,AC50,[4],active: 0.00301 µM
OCC(CO)(CBr)CBr,AC50,[1],inconclusive: 50 µM
same,outcome,[4],inactive
same,AC50,[2],inconclusive: 50 µM
CCCCC(CC)COC(=O)CC(C(=O)OCC(CC)CCCC)S(=O)(=O)O (stereo not given),AC50,[1],inconclusive: 50 µM
same,AC50,[2],active: 67.3 µM
CCN(CC)C(=S)SSC(=S)N(CC)CC,AC50,[1],inconclusive: 13.8 µM
same,AC50,[5],inconclusive: 21 µM
same,AC50,[6],inconclusive: 8.67 µM
same,AC50,[7],inconclusive: 11.1 µM
same,AC50,[8],inconclusive: 11.1 µM
same,AC50,[9],inconclusive: 2.2 µM
same,AC50,[4],active: 25.8 µM
same,AC50,[10],inconclusive: 11.1 µM
same,AC50,[11],inconclusive: 11.1 µM
same,AC50,[12],inconclusive: 11.1 µM
same,AC50,[13],inconclusive: 15.4 µM
same,AC50,[14],inconclusive: 11.1 µM
same,outcome,[3],inactive
same,AC50,[15],active: 0.309 µM
same,AC50,[16],inconclusive: 14.4 µM
same,AC50,[17],inconclusive: 13.3 µM
Cc1ccc(C(C)C)c(O)c1,outcome,[4],inactive
COS(=O)(=O)O,outcome,[4],inactive
C=CCc1cc(S(=O)(=O)c2ccc(O)c(CC=C)c2)ccc1O,AC50,[5],inconclusive: 100 µM
same,AC50,[6],inconclusive: 57.3 µM
same,AC50,[7],inconclusive: 100 µM
same,AC50,[18],inconclusive: 100 µM
same,AC50,[19],active: 24.5 µM
same,AC50,[10],inconclusive: 100 µM
same,AC50,[11],inconclusive: 100 µM
same,AC50,[3],inconclusive: 50 µM
same,AC50,[16],inconclusive: 100 µM
same,AC50,[17],inconclusive: 58.4 µM

# Rewritten bar-delimited: entries from further up
smiles | measurement | setting | value
CCN(CC)C(=S)SSC(=S)N(CC)CC | AC50 | [11] | inconclusive: 11.1 µM
same | AC50 | [12] | inconclusive: 11.1 µM
same | AC50 | [13] | inconclusive: 15.4 µM
